No constants are given. Whether binding was seen depends on the method and setting. Binding seen in cells or lysates may run through a third protein. Some entries that bind do so weakly or less than the wild type.
Molecular target: SEL1L (human (endogenous in HEK293T)) (UniProt Q9UBV2)
Test: co-IP; immunoprecipitation of SEL1L from lysates of mLepRb-transfected HEK293T (WT and HRD1-/-), Western blot

The chains behind the UniProt entries cited, without tags or fusion partners. Residues count along the entry.
UniProt Q9UBV2, residues 22-794: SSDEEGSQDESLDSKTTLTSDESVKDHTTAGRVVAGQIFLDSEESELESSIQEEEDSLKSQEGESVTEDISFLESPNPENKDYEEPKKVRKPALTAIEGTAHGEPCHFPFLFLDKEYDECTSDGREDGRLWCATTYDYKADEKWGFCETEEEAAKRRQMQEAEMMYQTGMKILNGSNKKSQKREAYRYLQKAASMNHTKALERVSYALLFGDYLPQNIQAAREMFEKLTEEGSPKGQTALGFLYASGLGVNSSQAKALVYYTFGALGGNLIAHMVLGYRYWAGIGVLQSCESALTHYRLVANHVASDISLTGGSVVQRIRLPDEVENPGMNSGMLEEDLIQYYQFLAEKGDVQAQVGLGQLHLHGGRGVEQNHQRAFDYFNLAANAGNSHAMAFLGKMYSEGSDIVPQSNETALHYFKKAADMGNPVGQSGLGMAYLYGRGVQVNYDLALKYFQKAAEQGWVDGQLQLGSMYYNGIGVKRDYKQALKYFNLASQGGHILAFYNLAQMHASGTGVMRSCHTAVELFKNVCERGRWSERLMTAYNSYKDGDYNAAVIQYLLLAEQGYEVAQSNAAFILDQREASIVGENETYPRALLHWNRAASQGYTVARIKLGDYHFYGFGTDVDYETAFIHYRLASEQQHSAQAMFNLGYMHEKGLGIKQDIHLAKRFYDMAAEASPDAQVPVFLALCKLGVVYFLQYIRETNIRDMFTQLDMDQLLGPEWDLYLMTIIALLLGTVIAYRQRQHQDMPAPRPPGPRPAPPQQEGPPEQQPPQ
UniProt P48356, residues 22-1162: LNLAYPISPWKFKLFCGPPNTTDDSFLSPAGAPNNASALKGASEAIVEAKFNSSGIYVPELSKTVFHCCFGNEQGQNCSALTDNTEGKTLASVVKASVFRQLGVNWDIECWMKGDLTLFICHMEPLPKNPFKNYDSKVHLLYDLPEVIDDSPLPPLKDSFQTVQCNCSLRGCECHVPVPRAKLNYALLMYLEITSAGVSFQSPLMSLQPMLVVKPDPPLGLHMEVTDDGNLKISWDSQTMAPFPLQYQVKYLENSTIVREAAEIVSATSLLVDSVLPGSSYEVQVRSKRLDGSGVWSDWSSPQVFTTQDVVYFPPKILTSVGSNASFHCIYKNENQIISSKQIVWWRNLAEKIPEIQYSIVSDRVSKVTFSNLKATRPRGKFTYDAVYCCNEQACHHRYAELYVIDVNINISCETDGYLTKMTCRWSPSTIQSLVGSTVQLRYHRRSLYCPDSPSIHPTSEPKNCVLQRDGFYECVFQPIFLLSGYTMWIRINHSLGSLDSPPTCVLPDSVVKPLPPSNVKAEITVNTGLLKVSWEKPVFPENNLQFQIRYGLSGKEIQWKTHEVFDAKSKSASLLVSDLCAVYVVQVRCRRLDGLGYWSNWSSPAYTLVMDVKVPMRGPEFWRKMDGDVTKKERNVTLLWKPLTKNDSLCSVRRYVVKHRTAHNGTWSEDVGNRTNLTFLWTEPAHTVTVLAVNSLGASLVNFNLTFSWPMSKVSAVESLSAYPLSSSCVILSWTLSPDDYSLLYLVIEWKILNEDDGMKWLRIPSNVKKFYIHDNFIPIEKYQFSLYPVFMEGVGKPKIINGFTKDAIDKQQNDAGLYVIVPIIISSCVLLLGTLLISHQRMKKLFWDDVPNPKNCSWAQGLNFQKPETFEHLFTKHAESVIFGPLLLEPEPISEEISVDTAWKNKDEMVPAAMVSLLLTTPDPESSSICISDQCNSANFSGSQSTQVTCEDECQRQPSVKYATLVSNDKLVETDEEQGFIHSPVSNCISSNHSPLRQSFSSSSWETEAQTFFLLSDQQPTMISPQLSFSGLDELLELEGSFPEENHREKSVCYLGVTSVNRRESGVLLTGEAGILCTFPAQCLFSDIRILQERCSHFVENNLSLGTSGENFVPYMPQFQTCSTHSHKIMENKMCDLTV

For “long isoform of mouse leptin receptor (mLepRb), 3xFLAG-tagged (from UniProt P48356 22-1162)”, the binding was “binds”.

From publication PMC10802724
